Assay results: PubChem BioAssay AID1347076 (National Center for Advancing Translational Sciences (NCATS), 2019)
The whole screen tested about 400,000 compounds, of which about 13,000 (3.2%) were called active. Inconclusive means that the source gave no clear call. Such entries were picked first, then a sample of the others. The call rests on the fitted dose curve; in most records, active means well fitted cell-killing curve with a large enough effect; inconclusive means small, poorly fitted or top-dose-only effect, or effect the other way; inactive means flat fitted curve, though single readings scatter. Potencies of inconclusive entries are doubtful fits and often do not repeat.

Assay: qHTS assay for MDR1-selective chemotherapeutics: Primary screen using the drug-selected MDR subline cells KB-V1; further: nearly all actives have a fitted effect of over 60% in size
Conditions: KB-V1 MDR cells viability, CellTiter-Glo, 72 h; activity change, negative = cytotoxicity: at 46.1 µM (top of the series)
How it was run: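 KB-V1, DMEM (no phenol red) + 10% FBS; cpd pin-transferred, titration series; 72 h, 37 degrees C; CellTiter-Glo, luminescence. Data normalized, curve-fit.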
On the % scale 0 is the no-effect control and ±100 the full control effect; potency means the concentration at half of the fitted maximal effect.

Structure (SMILES) | Potency | activity change, negative = cytotoxicity
COCCn1nnnc1C(c1cccs1)N1CCN(c2nc3ccccc3s2)CC1 (centres undefined) | inconclusive: 18.4 µM [cytotoxic, partial curve] | 
COc1cc(S(=O)(=O)N2CCOCC2)ccc1NC(=O)CN1c2cccc3cccc(c23)S1(=O)=O | inconclusive: 29.1 µM [rising, single point] | 
C[C@@H]1CN([C@H](C)CO)C(=O)c2cc(/C=C/c3ccccc3)cnc2O[C@H]1CN(C)C(=O)NC1CCCCC1 | inconclusive: 18.4 µM [rising, single point] | 
COc1ccccc1N1CCN(S(=O)(=O)c2ccc(Cl)cc2)CC1 | inconclusive: 14.6 µM [cytotoxic, partial curve] | 
CCOC(=O)c1ccc(N2C(=O)c3cccc4c(C(=O)O)ccc(c34)C2=O)cc1 | inconclusive: 1.84 µM [rising, partial curve] | 
C=CCCN(Cc1ccccc1)S(=O)(=O)c1cc(Br)ccc1Br | inconclusive: 29.1 µM [cytotoxic, single point] | 
O=C(COC(=O)c1ccc(S(=O)(=O)C(F)F)cc1)Nc1ccccc1C(=O)NC1CC1 | inconclusive: 29.1 µM [rising, partial curve, poor fit] | 
Cc1ccc2c(c1)sc1nc(-c3cc4ccccc4oc3=O)cn12 | inactive | 
C[C@]12CC[C@H]3C(=CCc4cc(O)ccc43)[C@@H]1CCC2=O | active: 8.2 µM | 
COc1ccccc1N1C(=O)c2ccc(C(=O)Nc3ccc(C(=O)O)cc3)cc2C1=O | inactive | 
OC[C@@H]1CN(Cc2cccs2)C[C@H](n2cnc3c(N4CCN(c5ccccc5)CC4)ncnc32)O1 | inactive | 
Cc1ccc(C(=O)NNC(=O)c2cccs2)cc1 | inconclusive: 14.6 µM [rising, partial curve, poor fit] | 
CC(=O)Nc1ccc(NC(=O)C(C)Oc2ccccc2C(=O)NCc2ccccc2)cc1 (centres undefined) | inconclusive: 13 µM [rising, partial curve] | 
COc1ccccc1OCC(O)CN1C(=O)NC(C)(C)C1=O (centres undefined) | inconclusive: 29.1 µM [rising, single point] | 
CCOC(=O)Cn1c(CN(Cc2ccccc2)Cc2ccccc2)nc2c1c(=O)n(C)c(=O)n2C | inconclusive: 3.66 µM [cytotoxic, full curve] | 
Cc1noc(C)c1C(=O)Nc1ccc(-n2ccc(C(F)(F)F)n2)cc1 | inactive | 
CCOC(=O)c1ccccc1NC(=O)CN1C(=O)CC(c2ccco2)Sc2ccccc21 (centres undefined) | inconclusive: 7.31 µM [cytotoxic, partial curve] | 
C(=N\n1cnnc1)/c1ccc(OC2CSC2)cc1 | inconclusive: 29.1 µM [cytotoxic, single point] | 
CC1(C)COC(/C=C/c2ccc([N+](=O)[O-])cc2)=N1 | active: 20.6 µM | 
COc1c(C)cc(C(=O)C2CCCN(Cc3cnc(N4CCOCC4)s3)C2)cc1C (centres undefined) | inactive | 
CC(C)c1ccc(CCNC(=O)c2cccc(S(=O)(=O)N3CCN(C)CC3)c2)cc1 | inconclusive: 6.51 µM [cytotoxic, partial curve] | 
OCCNCc1cc(Br)ccc1OCc1ccc(F)cc1 | inactive | 
CN1CCN(C(=O)/C(=C/c2cn(S(=O)(=O)N(C)C)c3ccccc23)NC(=O)c2ccccc2Cl)CC1 | inconclusive: 23.1 µM [cytotoxic, single point] | 

Structure (SMILES) | Potency | activity change, negative = cytotoxicity
CC(=O)c1cccc(Nc2nc(-c3cccc(C)c3)nc3ccccc23)c1 | inactive | 
CC1(C)CC2CC(C)(CN2C(=O)COC(=O)c2cccc([N+](=O)[O-])c2)C1 (centres undefined) | inconclusive: 20.6 µM [cytotoxic, single point] | 
COc1cccc(NC(=O)CN(C)CC(=O)Nc2ccccc2-c2ccccc2)c1 | inactive | 
Cc1ccc(NC(=O)Cn2cc(S(=O)(=O)N3CCCC3)c(S(=O)(=O)N3CCCC3)c2)cc1F | inconclusive: 2.59 µM [rising, full curve, poor fit] | 
COc1ccc(COC(=O)CCS(=O)(=O)c2ccc(C)cc2)cc1 | inconclusive: 29.1 µM [rising, single point] | 
COc1ccc(CCNC(=O)C2CC(O)CN2S(=O)(=O)c2ccc(Cl)cc2)cc1OC (centres undefined) | inactive | 
COCCOC(=O)C1=C(C)N=C2SCCC(=O)N2C1/C=C/c1ccccc1 (centres undefined) | inactive | 
COC(=O)c1sc(C(C)(C)C)cc1CS(=O)(=O)c1ccccn1 | inconclusive: 10.3 µM [cytotoxic, partial curve] | 
O=S(=O)(c1ccccc1)N1CCN(Cc2cc3c(cc2Br)OCCO3)CC1 | inconclusive: 20.6 µM [cytotoxic, single point] | 
CN(C)C(=O)C1CCC(=O)N1Cc1cccs1 (centres undefined) | inactive | 
O=C(COC(=O)COc1ccccc1F)Nc1ccc2c(c1)OCO2 | inconclusive: 14.6 µM [rising, partial curve] | 
CC1(C(=O)NS(=O)(=O)Cc2cccc(Cl)c2)CCN1C(=O)CCc1cccs1 (centres undefined) | inactive | 
Cc1cc(NCCOCCO)n2ncc(-c3ccc(Cl)cc3)c2n1 | inconclusive: 13 µM [cytotoxic, partial curve] | 
C=CCC[C@H](Cc1ccc(F)cc1)C(=O)OC[C@H](C)NC(=O)[C@@H](CC=C)CC(=O)N[C@H](CO)Cc1ccccc1 | inconclusive: 5.8 µM [cytotoxic, partial curve, poor fit] | 
O=S(=O)(c1ccccc1C(F)(F)F)N1CCN(c2ncnc3sccc23)CC1 | inconclusive: 9.2 µM [cytotoxic, partial curve, poor fit] | 
Clc1ccccc1N/N=C/c1ccc2c(c1)OCO2 | inactive | 
Cc1c(C(=O)N2c3ccccc3CC2C)oc2ccccc12 (centres undefined) | inconclusive: 20.6 µM [cytotoxic, single point] | 
COCCC(=O)N1CCC(Oc2ccc(C(=O)NCc3cc(C)n(C)n3)cc2)CC1 | inconclusive: 5.8 µM [rising, full curve, poor fit] | 
Cc1ccc(NC(=O)CSc2ccc(-c3ccco3)nn2)c(C)c1 | inconclusive: 16.4 µM [cytotoxic, single point] | 
Cc1ccc(S(=O)(=O)N2CCOCC2)cc1NC(=O)COC(=O)/C=C/c1ccco1 | inactive | 
Cc1ccc(C)c(S(=O)(=O)c2nnn3c2nc(Nc2ccc(C)c(C)c2)c2ccccc23)c1 | inconclusive: 20.6 µM [rising, single point] | 
CC(C)OC(=O)/C(=C/c1ccc(Br)cc1)NC(=O)c1ccco1 | active: 16.4 µM | 
CCOc1ncccc1C(=O)OCC(=O)c1cc(C)n(Cc2ccco2)c1C | inconclusive: 29.1 µM [cytotoxic, single point] | 

Of the compounds above, two contain a CF3 group.
Structure (SMILES) | Potency | activity change, negative = cytotoxicity
Cc1noc(C)c1C(=O)Nc1ccc(-n2ccc(C(F)(F)F)n2)cc1 | inactive | 
O=S(=O)(c1ccccc1C(F)(F)F)N1CCN(c2ncnc3sccc23)CC1 | inconclusive: 9.2 µM [cytotoxic, partial curve, poor fit] | 

Carrying on.

Structure (SMILES) | Potency | activity change, negative = cytotoxicity
N#Cc1ccc(S(=O)(=O)NCCc2ccncc2)cc1 | inconclusive: 29.1 µM [rising, single point] | 
O/N=C/CCn1c(=S)sc2ccccc21 | inconclusive: 29.1 µM [cytotoxic, single point] | 
O=C(CSc1nnc(COc2ccccc2)n1Cc1ccco1)c1ccc(F)cc1 | inconclusive: 32.6 µM [cytotoxic, single point] | 
CC(C)C(C)NC(=O)COc1ccc(Sc2ccc(OCC(=O)NC(C)C(C)C)cc2)cc1 (centres undefined) | active: 2.91 µM | 
CC(=O)Nc1ccc(NC(=O)COC(=O)C2c3ccccc3Oc3ccccc32)cc1 | inactive | 
Cc1ccccc1CN1C(=O)[C@@H]2Cc3c([nH]c4ccccc34)C(C)(C)N2C1=O | inconclusive: 29.1 µM [cytotoxic, single point] | 
COc1ccc(CC2(CO)CCN(Cc3ccc4c(c3)CCO4)CC2)cc1 | inconclusive: 9.2 µM [cytotoxic, partial curve, poor fit] | 
Cc1ccc(NC(=O)Cn2c(=O)c3ccccc3n3nncc23)cc1 | inactive | 
CCCN1CCC(NC(=S)Nc2ccc([N+](=O)[O-])cc2)CC1 | inactive | 
CC(=O)c1ccc(Nc2nc3c(S(=O)(=O)c4ccccc4)nnn3c3ccc(Cl)cc23)cc1 | inactive | 
CCC(=O)Nc1ccc(S(=O)(=O)Nc2nccs2)cc1 | inconclusive: 16.4 µM [rising, partial curve, poor fit] | 
OC(CNC1CCCC1)COCCOc1ccc(Br)cc1 (centres undefined) | inconclusive: 1.64 µM [cytotoxic, partial curve, poor fit] | 
O=C(Nc1cccc(F)c1)Nc1ccccn1 |  | inconclusive: -81.4%
NC(N)=N/N=C/c1ccc(Cl)cc1Cl | inconclusive: 29.1 µM [cytotoxic, single point] | 
O=[N+]([O-])c1ccc(Nc2nc(NCCN3CCOCC3)nc(Nc3ccc(Cl)cc3)n2)cc1 | inconclusive: 29.1 µM [cytotoxic, single point] | 
COc1cccc(C(=O)N(c2ccc(OC)cc2OC)C2C=CS(=O)(=O)C2)c1 (centres undefined) | inconclusive: 16.4 µM [cytotoxic, single point] | 
CSc1ccccc1NC(=O)CN(C)C(=O)c1cccc(S(=O)(=O)N(C)C)c1 | inconclusive: 29.1 µM [rising, single point] | 
CCCC(=O)N1CCC1(C)C(=O)NS(=O)(=O)c1cc2c(cc1C)CCCS2(=O)=O (centres undefined) | inactive | 
CCN1c2ccccc2-c2nc(SCC(=O)NCc3ccccc3)ncc2S1(=O)=O | inactive | 
Cc1ccccc1N1CCN(Cc2c[nH]c3ccccc23)CC1 | inactive | 
O=C1CCCN1c1ccc(S(=O)(=O)Oc2ccc(Cl)cc2)cc1[N+](=O)[O-] | inconclusive: 20.6 µM [cytotoxic, partial curve] | 
O=c1c2ccccc2oc2ccc(-c3ccoc3)cc12 | inconclusive: 29.1 µM [cytotoxic, single point] | 
S=C(Nc1ccc(Cl)c(Cl)c1)NC1CCN(Cc2ccccc2)CC1 | inconclusive: 23.1 µM [cytotoxic, single point] | 
